Measured values reported in the supplement of paper PMC11732987, “Enantioselective OTUD7B fragment discovery through chemoproteomics screening and high-throughput optimisation” (Communications Chemistry, 2025).
The list shows a part of the results. The data scatter; read single values as rough.

Sequences of proteins named here, by UniProt entry; tags and fusion partners are left off. A change or cut given only in a name is not applied to a line headed by its entry. Residues count along the entry.
UniProt O14617: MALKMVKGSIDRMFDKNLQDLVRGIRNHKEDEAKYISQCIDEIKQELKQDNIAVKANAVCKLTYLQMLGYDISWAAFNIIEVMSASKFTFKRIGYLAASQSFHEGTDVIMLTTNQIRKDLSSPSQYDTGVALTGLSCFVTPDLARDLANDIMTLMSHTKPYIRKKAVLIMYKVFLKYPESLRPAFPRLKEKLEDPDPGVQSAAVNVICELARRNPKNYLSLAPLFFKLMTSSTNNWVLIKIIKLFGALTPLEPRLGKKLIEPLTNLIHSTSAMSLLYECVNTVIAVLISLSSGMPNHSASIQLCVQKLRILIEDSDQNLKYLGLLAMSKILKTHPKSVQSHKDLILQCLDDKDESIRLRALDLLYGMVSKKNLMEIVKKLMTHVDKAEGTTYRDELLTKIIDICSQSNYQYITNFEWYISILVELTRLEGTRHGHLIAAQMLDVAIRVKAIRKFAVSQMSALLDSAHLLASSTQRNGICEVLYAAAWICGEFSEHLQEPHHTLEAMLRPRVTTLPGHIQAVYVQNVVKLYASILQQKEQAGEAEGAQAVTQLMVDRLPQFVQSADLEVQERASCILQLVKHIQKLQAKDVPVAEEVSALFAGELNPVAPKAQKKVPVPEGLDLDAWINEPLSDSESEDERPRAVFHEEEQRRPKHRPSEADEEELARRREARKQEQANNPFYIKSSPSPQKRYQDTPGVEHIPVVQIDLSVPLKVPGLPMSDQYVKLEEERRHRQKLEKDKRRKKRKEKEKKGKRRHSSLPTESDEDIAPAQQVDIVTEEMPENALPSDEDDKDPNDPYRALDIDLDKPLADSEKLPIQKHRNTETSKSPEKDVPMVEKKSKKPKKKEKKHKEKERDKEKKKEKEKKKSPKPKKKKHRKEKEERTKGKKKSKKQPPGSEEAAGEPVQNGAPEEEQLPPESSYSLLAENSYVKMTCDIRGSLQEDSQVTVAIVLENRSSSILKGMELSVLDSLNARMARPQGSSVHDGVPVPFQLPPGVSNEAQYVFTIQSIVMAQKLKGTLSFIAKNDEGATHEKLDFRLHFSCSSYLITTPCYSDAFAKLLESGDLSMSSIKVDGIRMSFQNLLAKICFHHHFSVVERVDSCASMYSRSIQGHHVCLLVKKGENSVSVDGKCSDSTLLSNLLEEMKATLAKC
UniProt Q8TER5, whole entry, looked up: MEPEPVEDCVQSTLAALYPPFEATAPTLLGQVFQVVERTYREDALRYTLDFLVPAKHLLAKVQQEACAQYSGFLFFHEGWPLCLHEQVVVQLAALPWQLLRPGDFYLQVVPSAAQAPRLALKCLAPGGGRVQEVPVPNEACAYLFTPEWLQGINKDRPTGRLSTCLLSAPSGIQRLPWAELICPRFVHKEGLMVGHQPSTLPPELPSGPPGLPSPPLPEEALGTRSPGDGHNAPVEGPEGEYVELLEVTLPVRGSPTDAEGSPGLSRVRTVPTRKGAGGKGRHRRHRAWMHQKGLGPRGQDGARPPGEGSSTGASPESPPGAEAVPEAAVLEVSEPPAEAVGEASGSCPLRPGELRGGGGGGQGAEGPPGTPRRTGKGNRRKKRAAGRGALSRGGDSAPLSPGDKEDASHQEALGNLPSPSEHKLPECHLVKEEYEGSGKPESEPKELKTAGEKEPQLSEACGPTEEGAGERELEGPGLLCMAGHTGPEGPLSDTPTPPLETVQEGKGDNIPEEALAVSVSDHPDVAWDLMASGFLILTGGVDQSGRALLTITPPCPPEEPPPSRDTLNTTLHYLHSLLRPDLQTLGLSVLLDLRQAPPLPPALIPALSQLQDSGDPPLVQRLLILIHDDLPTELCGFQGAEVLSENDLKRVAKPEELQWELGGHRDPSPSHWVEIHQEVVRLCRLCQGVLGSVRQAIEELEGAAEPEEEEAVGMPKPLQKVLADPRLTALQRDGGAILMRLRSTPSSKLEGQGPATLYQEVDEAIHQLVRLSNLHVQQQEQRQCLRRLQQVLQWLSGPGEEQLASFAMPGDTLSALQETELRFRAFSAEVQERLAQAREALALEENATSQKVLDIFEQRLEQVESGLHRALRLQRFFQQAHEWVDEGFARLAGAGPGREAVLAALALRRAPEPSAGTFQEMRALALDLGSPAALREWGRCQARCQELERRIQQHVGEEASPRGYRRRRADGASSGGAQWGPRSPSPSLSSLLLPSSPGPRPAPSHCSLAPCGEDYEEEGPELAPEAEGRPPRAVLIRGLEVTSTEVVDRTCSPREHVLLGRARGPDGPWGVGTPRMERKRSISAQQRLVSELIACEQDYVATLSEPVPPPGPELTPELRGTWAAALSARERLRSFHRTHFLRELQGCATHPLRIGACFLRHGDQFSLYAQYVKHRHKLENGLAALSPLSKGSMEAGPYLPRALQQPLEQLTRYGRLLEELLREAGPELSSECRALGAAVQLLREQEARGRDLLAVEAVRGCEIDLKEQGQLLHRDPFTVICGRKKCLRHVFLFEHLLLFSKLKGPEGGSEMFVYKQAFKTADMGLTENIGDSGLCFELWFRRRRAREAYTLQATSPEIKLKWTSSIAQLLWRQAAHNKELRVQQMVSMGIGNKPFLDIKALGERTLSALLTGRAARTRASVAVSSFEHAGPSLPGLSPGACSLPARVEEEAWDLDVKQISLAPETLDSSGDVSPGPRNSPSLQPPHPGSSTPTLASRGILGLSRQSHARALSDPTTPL
UniProt Q92625, 142-166: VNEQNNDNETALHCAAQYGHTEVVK
UniProt Q99856: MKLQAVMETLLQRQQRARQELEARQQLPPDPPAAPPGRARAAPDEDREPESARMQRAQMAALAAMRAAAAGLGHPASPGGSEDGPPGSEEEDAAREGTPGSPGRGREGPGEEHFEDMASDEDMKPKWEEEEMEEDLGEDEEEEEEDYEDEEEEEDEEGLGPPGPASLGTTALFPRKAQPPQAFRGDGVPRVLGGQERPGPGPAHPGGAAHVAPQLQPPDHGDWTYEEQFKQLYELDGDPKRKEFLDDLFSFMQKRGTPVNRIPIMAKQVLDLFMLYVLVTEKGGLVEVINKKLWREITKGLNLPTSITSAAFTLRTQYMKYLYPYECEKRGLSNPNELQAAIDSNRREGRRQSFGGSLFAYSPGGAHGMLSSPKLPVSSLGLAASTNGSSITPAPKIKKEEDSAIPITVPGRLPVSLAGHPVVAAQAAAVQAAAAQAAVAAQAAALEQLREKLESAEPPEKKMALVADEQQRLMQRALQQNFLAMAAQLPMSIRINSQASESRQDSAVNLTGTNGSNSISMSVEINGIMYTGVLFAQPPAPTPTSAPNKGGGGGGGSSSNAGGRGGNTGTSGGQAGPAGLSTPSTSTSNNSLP
UniProt Q15041, whole entry, looked up: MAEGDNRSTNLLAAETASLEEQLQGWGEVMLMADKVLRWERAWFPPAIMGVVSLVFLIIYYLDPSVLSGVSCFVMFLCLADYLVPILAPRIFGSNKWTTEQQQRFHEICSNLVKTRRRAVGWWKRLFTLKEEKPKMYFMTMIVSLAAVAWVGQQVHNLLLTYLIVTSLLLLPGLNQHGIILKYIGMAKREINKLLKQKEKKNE
UniProt Q53RE8: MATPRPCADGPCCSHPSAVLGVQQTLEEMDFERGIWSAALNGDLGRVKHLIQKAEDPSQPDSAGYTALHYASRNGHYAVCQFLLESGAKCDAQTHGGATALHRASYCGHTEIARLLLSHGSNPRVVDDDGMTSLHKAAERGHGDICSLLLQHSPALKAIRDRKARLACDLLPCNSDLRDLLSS
UniProt P53677: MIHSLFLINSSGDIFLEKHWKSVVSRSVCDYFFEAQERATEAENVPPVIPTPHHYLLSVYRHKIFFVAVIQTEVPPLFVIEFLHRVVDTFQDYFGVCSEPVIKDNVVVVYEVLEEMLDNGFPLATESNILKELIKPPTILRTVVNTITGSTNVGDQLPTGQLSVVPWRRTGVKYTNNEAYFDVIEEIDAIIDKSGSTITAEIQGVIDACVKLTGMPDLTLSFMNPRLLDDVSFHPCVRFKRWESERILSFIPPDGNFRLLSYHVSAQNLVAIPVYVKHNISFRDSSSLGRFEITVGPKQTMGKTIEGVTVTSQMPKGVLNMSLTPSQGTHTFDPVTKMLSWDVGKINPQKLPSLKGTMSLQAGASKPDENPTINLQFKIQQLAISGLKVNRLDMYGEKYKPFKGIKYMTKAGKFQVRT
UniProt Q9NQW6: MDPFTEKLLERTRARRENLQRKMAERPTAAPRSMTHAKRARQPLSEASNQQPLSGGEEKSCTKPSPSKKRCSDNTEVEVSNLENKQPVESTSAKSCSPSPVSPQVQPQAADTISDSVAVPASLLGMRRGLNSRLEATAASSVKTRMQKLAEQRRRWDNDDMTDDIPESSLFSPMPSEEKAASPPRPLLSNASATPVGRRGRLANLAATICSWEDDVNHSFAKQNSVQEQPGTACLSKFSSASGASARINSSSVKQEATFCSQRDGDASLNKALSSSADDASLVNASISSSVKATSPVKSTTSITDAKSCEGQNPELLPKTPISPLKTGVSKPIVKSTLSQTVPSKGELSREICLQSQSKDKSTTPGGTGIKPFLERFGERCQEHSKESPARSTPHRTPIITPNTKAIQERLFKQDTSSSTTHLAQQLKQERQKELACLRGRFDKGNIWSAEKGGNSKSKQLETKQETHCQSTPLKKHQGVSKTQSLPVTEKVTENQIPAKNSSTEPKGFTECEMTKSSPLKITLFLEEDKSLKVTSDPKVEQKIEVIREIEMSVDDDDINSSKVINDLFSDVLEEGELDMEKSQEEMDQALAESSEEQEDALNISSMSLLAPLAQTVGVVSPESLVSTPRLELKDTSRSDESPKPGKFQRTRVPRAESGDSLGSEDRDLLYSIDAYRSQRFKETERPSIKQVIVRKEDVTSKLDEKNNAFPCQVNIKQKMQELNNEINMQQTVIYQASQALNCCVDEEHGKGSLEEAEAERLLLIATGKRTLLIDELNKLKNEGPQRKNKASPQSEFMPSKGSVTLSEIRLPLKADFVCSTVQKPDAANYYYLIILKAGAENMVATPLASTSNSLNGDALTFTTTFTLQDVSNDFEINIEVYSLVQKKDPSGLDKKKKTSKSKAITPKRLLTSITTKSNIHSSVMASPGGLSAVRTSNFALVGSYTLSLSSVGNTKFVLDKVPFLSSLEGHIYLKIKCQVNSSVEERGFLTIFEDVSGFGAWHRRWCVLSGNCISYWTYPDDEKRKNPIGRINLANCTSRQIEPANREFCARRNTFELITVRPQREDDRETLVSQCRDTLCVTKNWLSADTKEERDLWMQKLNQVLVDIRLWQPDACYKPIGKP
UniProt Q52LW3: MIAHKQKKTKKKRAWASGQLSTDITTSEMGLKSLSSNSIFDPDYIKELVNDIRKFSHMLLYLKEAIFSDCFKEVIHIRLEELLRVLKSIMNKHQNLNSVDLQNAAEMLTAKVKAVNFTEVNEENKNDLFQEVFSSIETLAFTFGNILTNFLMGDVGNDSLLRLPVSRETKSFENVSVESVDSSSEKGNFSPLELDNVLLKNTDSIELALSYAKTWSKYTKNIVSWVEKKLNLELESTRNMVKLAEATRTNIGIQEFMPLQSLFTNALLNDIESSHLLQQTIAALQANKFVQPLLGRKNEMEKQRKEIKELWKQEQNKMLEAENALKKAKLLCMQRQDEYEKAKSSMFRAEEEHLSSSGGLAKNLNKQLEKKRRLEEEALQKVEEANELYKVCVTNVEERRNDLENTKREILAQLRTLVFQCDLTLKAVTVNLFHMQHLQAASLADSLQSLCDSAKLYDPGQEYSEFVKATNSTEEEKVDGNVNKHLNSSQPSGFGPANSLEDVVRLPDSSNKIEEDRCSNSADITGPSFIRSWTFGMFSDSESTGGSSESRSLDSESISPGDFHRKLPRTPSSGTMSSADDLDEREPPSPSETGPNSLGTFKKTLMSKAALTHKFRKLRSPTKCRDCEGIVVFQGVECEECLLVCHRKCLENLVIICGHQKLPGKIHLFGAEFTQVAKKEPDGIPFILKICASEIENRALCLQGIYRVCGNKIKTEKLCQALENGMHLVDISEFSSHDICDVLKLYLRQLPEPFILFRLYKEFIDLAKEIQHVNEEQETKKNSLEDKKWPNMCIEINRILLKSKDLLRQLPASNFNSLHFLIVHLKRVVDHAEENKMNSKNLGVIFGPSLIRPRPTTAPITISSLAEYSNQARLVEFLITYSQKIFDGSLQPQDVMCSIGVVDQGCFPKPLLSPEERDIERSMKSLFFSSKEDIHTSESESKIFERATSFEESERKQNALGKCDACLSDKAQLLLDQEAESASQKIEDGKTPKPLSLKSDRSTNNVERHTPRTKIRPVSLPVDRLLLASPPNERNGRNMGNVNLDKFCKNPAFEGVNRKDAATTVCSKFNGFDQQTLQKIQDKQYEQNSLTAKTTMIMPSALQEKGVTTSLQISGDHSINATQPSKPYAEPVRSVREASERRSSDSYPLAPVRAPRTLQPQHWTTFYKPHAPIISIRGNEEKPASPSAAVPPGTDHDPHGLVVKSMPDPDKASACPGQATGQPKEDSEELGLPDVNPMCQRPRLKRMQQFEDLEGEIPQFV

Each target was assayed with ClCC(=O)N[C@H]1CCCc2ccccc12 (assay: log2 mean competition ratio of IA-DTB cysteine labelling (DMSO/compound) (log2 ratio); higher = stronger cysteine engagement by compound). Conditions: 50 µM; treatment time: 4 h; cell line lysate: HEK293T.
Experimental: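 IA-DTB competitive cysteine chemoproteomics in HEK293T RIPA lysate. Lysates were treated with compound 29 or 30 at 50 or 200 µM for 4 h, then IA-DTB (500 µM, 1 h), trypsin-digested, NeutrAvidin-enriched and analysed by diaPASEF. Competition ratio = intensity DMSO / intensity compound (n=4 treated, n=64 DMSO); binding: mean log2 CR ≥ 1 and p ≤ 0.05 plus QC filters. Target is the cysteine site.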
With ARHGAP35 C924 (UniProt Q9NRY4) the “log2 mean competition ratio” value was 0.181. For APBA2 C272 (UniProt Q99767), the “log2 mean competition ratio” value was -0.197. For AP3D1 C1103 (UniProt O14617), the “log2 mean competition ratio” value was 0.104. For ARHGEF6 C738 (UniProt Q15052), the “log2 mean competition ratio” value was -0.0881. AP1G1 C539 was tested, and the “log2 mean competition ratio” value was 0.0879. For ARHGEF40 C1148 (UniProt Q8TER5), the “log2 mean competition ratio” value was 0.139. In the case of ARHGEF7 C721 (UniProt Q14155), the “log2 mean competition ratio” value is reported as 0.406. For ANKS1A C155 (UniProt Q92625), the “log2 mean competition ratio” value was -0.607. For ARID3A C327 (UniProt Q99856), the “log2 mean competition ratio” value was 0.157. ARID2 C1512 (UniProt Q68CP9) was tested, and the “log2 mean competition ratio” value was -0.0173. AS3MT C271 was tested, and the “log2 mean competition ratio” value was -0.0406. For ARL6IP1 C109 (UniProt Q15041), the “log2 mean competition ratio” value was 0.0191. For ANKRD39 C107 (UniProt Q53RE8), the “log2 mean competition ratio” value was 0.503. With AP3M2 C29 (UniProt P53677) the “log2 mean competition ratio” value was 0.286. ARIH2 C270 (UniProt O95376) was tested, and the “log2 mean competition ratio” value was -0.175. For ANXA6 C59, the “log2 mean competition ratio” value was 0.155. With ARAF C144 (UniProt P10398) the “log2 mean competition ratio” value was -0.289. With ANKRD50 C1328 (UniProt Q9ULJ7) the “log2 mean competition ratio” value was -0.0255. In the case of ANLN C353 (UniProt Q9NQW6), the “log2 mean competition ratio” value is reported as 0.489. In the case of ARHGAP29 C1066 (UniProt Q52LW3), the “log2 mean competition ratio” value is reported as 0.183.

Same assay, conditions: 200 µM; treatment time: 4 h; cell line lysate: HEK293T
With ARHGAP35 C924 (UniProt Q9NRY4) the “log2 mean competition ratio” value was -0.337. In the case of APBA2 C272 (UniProt Q99767), the “log2 mean competition ratio” value is reported as -0.0573. For AP3D1 C1103 (UniProt O14617), the “log2 mean competition ratio” value was -0.0929. With ARHGEF6 C738 (UniProt Q15052) the “log2 mean competition ratio” value was 0.34. In the case of AP1G1 C539, the “log2 mean competition ratio” value is reported as -0.304. With ARHGEF40 C1148 (UniProt Q8TER5) the “log2 mean competition ratio” value was 0.0333. For ARHGEF7 C721 (UniProt Q14155), the “log2 mean competition ratio” value was 0.0437. ANKS1A C155 (UniProt Q92625) was tested, and the “log2 mean competition ratio” value was -0.738. With ARID3A C327 (UniProt Q99856) the “log2 mean competition ratio” value was -0.187. In the case of ARID2 C1512 (UniProt Q68CP9), the “log2 mean competition ratio” value is reported as 0.438. AS3MT C271 was tested, and the “log2 mean competition ratio” value was -0.000462. In the case of ARL6IP1 C109 (UniProt Q15041), the “log2 mean competition ratio” value is reported as 0.0659. ANKRD39 C107 (UniProt Q53RE8) was tested, and the “log2 mean competition ratio” value was -0.242. With AP3M2 C29 (UniProt P53677) the “log2 mean competition ratio” value was 0.0785. ARIH2 C270 (UniProt O95376) was tested, and the “log2 mean competition ratio” value was 0.0647. In the case of ANXA6 C59, the “log2 mean competition ratio” value is reported as 0.225. In the case of ARAF C144 (UniProt P10398), the “log2 mean competition ratio” value is reported as -0.0993. With ANKRD50 C1328 (UniProt Q9ULJ7) the “log2 mean competition ratio” value was 0.632. ANLN C353 (UniProt Q9NQW6) was tested, and the “log2 mean competition ratio” value was 0.251. With ARHGAP29 C1066 (UniProt Q52LW3) the “log2 mean competition ratio” value was 0.577.
